Among the data in PMC8523714 are binding values, retold here.

Amino acid sequences for entries named in this document (tags omitted). A change or cut given only in a name is not applied to a line headed by its entry. Chains listed by the source or under a name are the forms on record and can include a tag or linker.
UniProt Q9BYI3: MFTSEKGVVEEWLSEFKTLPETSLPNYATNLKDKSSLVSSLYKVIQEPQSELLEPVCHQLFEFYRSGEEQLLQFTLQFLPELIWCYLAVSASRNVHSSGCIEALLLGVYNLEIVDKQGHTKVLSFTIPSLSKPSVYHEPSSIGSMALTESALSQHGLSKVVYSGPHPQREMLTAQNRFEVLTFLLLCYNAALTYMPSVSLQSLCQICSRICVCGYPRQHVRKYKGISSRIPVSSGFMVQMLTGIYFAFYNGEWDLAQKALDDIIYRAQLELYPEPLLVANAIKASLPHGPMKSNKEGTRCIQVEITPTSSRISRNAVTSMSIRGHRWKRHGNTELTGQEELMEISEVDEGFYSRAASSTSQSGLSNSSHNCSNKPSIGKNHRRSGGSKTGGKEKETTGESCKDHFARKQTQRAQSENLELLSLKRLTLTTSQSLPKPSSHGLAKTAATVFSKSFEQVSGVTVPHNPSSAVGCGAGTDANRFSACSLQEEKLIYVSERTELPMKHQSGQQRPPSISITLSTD
FLAG-FAM126A^ASASAA (Q9BYI3, form named): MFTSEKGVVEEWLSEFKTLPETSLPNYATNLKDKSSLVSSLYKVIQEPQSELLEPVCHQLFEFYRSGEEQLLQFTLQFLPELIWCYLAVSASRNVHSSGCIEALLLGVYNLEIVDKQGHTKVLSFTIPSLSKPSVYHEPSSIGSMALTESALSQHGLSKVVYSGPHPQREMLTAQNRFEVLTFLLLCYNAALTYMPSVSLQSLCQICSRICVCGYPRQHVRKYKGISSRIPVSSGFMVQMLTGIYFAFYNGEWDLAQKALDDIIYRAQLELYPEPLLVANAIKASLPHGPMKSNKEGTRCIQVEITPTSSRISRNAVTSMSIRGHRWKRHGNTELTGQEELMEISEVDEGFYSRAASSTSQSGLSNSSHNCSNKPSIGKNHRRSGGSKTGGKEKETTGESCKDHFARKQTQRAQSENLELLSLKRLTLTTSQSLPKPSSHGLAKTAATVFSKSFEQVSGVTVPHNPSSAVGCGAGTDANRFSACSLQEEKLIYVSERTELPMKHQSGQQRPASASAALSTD

These are yes or no findings as the source states them, for the method shown. In cells and extracts the contact can be indirect. Some results given as binding are weak or reduced against the parent protein; the word gives no strength. Sequences can lack the tags named with a protein.

Assay [1] addresses T1, EFR3B-HA (human) (UniProt Q9Y2G0).
T1 sequence: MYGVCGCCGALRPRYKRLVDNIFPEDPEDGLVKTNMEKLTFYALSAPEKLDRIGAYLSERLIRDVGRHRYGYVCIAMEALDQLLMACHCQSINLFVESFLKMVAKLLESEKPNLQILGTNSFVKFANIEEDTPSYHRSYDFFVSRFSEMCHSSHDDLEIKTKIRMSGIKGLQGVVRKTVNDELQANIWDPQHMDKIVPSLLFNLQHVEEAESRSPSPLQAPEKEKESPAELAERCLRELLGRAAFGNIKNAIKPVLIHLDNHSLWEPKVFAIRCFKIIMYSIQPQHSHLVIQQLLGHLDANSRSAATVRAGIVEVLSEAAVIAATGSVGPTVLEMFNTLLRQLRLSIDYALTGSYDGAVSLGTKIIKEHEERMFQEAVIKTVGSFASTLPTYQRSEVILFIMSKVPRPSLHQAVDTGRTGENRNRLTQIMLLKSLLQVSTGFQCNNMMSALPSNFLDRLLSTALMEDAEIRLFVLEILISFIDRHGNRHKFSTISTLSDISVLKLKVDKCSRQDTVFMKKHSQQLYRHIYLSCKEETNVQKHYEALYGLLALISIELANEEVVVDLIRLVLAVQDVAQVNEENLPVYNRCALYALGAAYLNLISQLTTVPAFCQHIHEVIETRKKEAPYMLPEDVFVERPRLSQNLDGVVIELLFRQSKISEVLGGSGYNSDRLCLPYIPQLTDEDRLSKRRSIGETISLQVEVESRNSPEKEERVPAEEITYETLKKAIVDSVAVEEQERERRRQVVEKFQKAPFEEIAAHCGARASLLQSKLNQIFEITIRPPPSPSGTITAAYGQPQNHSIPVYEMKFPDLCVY
Briefly: co-IP; EFR3B-HA immunoprecipitated (anti-HA beads) from lysates of HeLa cells expressing GFP-PI4KA, EFR3B-HA, TTC7B-MYC and FLAG-FAM126A (WT or ASASAA); immunoblot. (In western blotting, separated proteins are transferred to a membrane and probed.)

Assay [2] deals with T1, EFR3B-HA (human). Briefly: co-IP; EFR3B-HA immunoprecipitated (anti-HA beads) from lysates of HEK293 Flp-In T-REx cells that express GFP-CNAβ forms and were transfected with EFR3B-HA, TTC7B-MYC, FLAG-FAM126A and GFP-PI4KA; 50 mM Tris pH 7.5, 150 mM NaCl, 0.5% Triton X-100, 4 °C; immunoblot.
A further assay has as its target GFP-CNAβ1 (human) (UniProt Q5F2F8). In words: co-IP; GFP-CN isoforms immunoprecipitated (GFP) from lysates of HEK293 Flp-In T-REx cell lines co-expressing FLAG-NFATC1; immunoblot.
The next assay addresses GFP-CNAβ2 (human) (UniProt P16298). The description is as above.

Take “FLAG-FAM126A^ASASAA (from UniProt Q9BYI3 1-521)”: the binding entry with EFR3B-HA (human) [1] was “binds”. As for GFP-CNAβ2 (from UniProt P16298 1-524), the binding entry in the assay with EFR3B-HA (human) [2] was “binds”. Still for that read-out and setting: next, “GFP-CNAβ1^C2S (from UniProt Q5F2F8 1-496)”: “binds”. On to “FLAG-FAM126A^WT (from UniProt Q9BYI3 1-521)”, for which the binding entry in the assay with EFR3B-HA (human) [1] is “binds”. In the case of GFP-CNAβ1 (from UniProt Q5F2F8 1-496), in the assay with EFR3B-HA (human) [2], the binding entry was “binds”. For the molecule GFP-PI4KA (from UniProt P42356 1-2102), the binding entry with EFR3B-HA (human) [1] and with EFR3B-HA (human) [2] was “binds” in each case.

B1: FLAG-NFATC1 (protein, UniProt O95644 1-943)
chain: MPSTSFPVPSKFPLGPAAAVFGRGETLGPAPRAGGTMKSAEEEHYGYASSNVSPALPLPTAHSTLPAPCHNLQTSTPGIIPPADHPSGYGAALDGGPAGYFLSSGHTRPDGAPALESPRIEITSCLGLYHNNNQFFHDVEVEDVLPSSKRSPSTATLSLPSLEAYRDPSCLSPASSLSSRSCNSEASSYESNYSYPYASPQTSPWQSPCVSPKTTDPEEGFPRGLGACTLLGSPRHSPSTSPRASVTEESWLGARSSRPASPCNKRKYSLNGRQPPYSPHHSPTPSPHGSPRVSVTDDSWLGNTTQYTSSAIVAAINALTTDSSLDLGDGVPVKSRKTTLEQPPSVALKVEPVGEDLGSPPPPADFAPEDYSSFQHIRKGGFCDQYLAVPQHPYQWAKPKPLSPTSYMSPTLPALDWQLPSHSGPYELRIEVQPKSHHRAHYETEGSRGAVKASAGGHPIVQLHGYLENEPLMLQLFIGTADDRLLRPHAFYQVHRITGKTVSTTSHEAILSNTKVLEIPLLPENSMRAVIDCAGILKLRNSDIELRKGETDIGRKNTRVRLVFRVHVPQPSGRTLSLQVASNPIECSQRSAQELPLVEKQSTDSYPVVGGKKMVLSGHNFLQDSKVIFVEKAPDGHHVWEMEAKTDRDLCKPNSLVVEIPPFRNQRITSPVHVSFYVCNGKRKRSQYQRFTYLPANVPIIKTEPTDDYEPAPTCGPVSQGLSPLPRPYYSQQLAMPPDPSSCLVAGFPPCPQRSTLMPAAPGVSPKLHDLSPAAYTKGVASPGHCHLGLPQPAGEAPAVQDVPRPVATHPGSPGQPPPALLPQQVSAPPSSSCPPGLEHSLCPSSPSPPLPPATQEPTCLQPCSPACPPATGRPQHLPSTVRRDESPTAGPRLLPEVHEDGSPNLAPIPVTVKREPEELDQLYLDDVNEIIRNDLSSTSTHS
As to B1, the binding entry with GFP-CNAβ1 (human) is on record as “no binding”; in the assay with GFP-CNAβ2 (human) it was “binds”.
